This assay addresses Rts1-9Myc (S. cerevisiae) (UniProt P38903). The experiment in a line: pull-down; Rts1-9Myc immunoprecipitated from sgo1Δ RTS1-9MYC lysate on anti-Myc Protein G Dynabeads, then incubated with products of in vitro SUMOylation of Sgo1 (with or without ATP); anti-V5 and anti-Myc blots; only the binder purified.

The chains behind the UniProt entries cited, without tags or fusion partners.
UniProt P38903: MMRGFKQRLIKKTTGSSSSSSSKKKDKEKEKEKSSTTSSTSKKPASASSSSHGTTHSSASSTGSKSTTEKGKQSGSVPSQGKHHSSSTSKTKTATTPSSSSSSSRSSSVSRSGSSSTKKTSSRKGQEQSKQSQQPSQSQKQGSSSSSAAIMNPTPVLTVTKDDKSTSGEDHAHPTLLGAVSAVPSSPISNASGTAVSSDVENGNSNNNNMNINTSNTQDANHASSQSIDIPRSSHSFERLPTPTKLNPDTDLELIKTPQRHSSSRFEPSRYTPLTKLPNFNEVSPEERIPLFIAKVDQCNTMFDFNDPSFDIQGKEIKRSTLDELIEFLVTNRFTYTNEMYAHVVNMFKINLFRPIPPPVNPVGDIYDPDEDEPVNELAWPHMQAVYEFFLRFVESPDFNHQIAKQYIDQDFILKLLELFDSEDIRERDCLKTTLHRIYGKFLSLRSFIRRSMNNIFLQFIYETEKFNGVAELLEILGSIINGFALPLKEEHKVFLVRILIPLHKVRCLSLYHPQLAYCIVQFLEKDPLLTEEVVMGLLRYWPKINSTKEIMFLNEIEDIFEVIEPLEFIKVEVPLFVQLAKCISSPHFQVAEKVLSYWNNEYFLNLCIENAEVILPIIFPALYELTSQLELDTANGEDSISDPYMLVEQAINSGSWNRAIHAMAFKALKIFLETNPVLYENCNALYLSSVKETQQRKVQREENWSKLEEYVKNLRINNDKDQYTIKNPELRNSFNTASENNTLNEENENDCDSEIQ

No constants are given. Whether binding was seen depends on the method and setting. Binding seen in cells or lysates may run through a third protein. Some results given as binding are weak or reduced against the parent protein; the word gives no strength. Where a sequence is shown, tags or fusion partners need not be part of it.

B1: recombinant Hisx7-V5-tagged Sgo1, unSUMOylated (protein, UniProt Q08490 1-590)
chain: MPKRKIAPNKESSRRTVSHDDLTPQIQEFQNLMDLESQKVENIRQSYSRQNSLLAKDNSILKIKVNSLEKKISQLVQENVTLRSKTSISEAIYRERLSNQLQVIENGIIQRFDEIFYMFENVRKNENLPSSSLRTMLKRTSSRSRSCSLSSPTYSKSYTRLSNHENNLSHESSFNKDDGPDLEPKAKKRKSSRRQSMFVSTSLEPEDETGENEPMMENSSVEVPAESHESAQVEETIDALNPEEENSDSVSNFTNSIIEYSIPEENPTEPEHSSSKLEIFNDSTNMLSTVPSNPLPLPLPGPSATLPTTTSDASTVYPSSSSSTNSHPKTKIKHSMKPPRIELKKKVIDEVMPVSNMSSNSEISFTRTRRTRGKAVDYTLPSLRAKMRRPSEKLVDATTVIDIHDLQVSKRNRETSHKRKSLSQDSIPDEPQLREVVVSKDYGTPKGKKTEDEIHEDTAHLMTTSNNNSNNKNEKKLTSNNSPKKSSPLLDITNKSENKKKSTRTKKLFKNAIVNNLSDENSTTRPSKSSKGTSNNNNNYNNFDNNNSNINNVNNKSVSFRLNEDDLAVFDLFGNGKAVKHQPKTYRTKK
Take B1: the binding result is “binds”.

The values are drawn from paper PMC8094117.
